The values below come from patent US20230279115A1.

Chains of the proteins cited; added tags and fusions are not shown. Residues count along the entry.
UniProt Q15116, residues 25-167: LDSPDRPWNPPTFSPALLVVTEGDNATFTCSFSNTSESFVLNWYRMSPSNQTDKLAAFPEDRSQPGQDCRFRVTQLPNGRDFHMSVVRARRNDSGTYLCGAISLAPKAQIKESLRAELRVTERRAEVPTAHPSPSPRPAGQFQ

These are yes or no findings as the source states them, for the method shown. Tags and fused reporters may be left off the sequences shown.

For the test, the target named is recombinant human PD-1 (human) (UniProt Q15116). As to the kind of experiment: condition: 1 µg/mL (from paragraph 85 for chF2; not printed on the sheet); ELISA on coated recombinant human protein (1 µg/mL), detection with HRP-anti-human IgG. Background: ELISA stands for enzyme-linked immunosorbent assay.

B1: KN035 (fusion protein of the KN035 variable region and Fc) (Fc fusion, not shown: a dimerising Fc or GST)
chain: QVQLVESGGGLVQPGGSLRLSCAASGKMSSRRCMAWFRQAPGKERERVAKLLTTSGSTYLADSVKGRFTISRDNSKNTVYLQMNSLRAEDTAVYYCAADSFEDPTCTLVTSSGAFQYWGQGTLVTVSS
For B1, the binding entry was “no binding”.
